# Measured values taken from paper PMC12669767.
# Amino acid sequences for entries named in this document (tags omitted).
# UniProt Q9H3M7: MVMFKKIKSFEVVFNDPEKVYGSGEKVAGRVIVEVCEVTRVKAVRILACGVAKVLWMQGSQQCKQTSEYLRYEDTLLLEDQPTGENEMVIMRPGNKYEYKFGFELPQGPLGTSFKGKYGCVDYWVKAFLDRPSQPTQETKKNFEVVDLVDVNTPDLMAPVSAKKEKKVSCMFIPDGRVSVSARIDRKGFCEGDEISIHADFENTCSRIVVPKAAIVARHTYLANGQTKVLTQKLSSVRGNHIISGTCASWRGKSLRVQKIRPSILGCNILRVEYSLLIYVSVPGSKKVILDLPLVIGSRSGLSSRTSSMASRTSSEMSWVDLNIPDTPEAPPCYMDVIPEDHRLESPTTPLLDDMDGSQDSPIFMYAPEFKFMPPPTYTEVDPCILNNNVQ
# UniProt Q76N89: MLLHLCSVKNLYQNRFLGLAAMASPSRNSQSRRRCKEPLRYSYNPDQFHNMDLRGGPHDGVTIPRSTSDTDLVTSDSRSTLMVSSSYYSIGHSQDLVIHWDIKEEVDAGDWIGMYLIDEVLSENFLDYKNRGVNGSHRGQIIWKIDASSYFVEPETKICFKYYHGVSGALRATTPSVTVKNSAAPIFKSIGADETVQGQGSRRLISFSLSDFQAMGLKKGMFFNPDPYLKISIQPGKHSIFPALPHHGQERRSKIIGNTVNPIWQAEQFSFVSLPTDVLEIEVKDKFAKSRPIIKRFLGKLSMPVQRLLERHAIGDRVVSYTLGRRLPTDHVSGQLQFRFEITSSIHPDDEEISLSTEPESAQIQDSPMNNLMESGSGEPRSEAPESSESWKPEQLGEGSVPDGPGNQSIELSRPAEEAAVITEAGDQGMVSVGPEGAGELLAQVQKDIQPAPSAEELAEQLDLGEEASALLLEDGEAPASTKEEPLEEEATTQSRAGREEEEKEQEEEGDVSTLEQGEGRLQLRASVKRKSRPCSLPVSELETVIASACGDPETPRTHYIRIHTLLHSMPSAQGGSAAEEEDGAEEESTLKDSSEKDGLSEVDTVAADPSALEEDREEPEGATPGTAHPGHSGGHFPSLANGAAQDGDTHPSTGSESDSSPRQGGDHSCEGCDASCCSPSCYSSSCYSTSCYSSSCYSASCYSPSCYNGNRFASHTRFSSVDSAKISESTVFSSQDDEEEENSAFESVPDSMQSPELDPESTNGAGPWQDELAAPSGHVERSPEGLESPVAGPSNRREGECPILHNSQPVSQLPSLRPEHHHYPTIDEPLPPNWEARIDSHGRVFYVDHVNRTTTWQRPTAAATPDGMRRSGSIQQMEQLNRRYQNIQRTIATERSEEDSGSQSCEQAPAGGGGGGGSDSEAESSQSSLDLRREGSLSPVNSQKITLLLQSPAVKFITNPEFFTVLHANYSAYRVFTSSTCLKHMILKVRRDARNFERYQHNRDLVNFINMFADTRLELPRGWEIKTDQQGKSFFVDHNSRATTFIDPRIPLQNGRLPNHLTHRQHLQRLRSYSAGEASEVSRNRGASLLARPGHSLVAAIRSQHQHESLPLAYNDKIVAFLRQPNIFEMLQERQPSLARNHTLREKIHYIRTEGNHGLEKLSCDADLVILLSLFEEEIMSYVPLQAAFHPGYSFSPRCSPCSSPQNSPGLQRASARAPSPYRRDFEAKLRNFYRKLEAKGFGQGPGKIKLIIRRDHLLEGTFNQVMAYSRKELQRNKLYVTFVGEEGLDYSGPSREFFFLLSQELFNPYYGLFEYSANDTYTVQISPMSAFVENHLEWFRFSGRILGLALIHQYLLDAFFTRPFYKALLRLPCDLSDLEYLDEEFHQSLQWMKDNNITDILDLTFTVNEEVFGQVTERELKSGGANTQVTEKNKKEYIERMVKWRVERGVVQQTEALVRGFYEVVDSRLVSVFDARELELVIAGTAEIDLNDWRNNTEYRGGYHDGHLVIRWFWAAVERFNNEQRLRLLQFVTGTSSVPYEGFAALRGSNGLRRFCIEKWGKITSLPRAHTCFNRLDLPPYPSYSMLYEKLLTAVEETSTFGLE
# UniProt Q9P2P5: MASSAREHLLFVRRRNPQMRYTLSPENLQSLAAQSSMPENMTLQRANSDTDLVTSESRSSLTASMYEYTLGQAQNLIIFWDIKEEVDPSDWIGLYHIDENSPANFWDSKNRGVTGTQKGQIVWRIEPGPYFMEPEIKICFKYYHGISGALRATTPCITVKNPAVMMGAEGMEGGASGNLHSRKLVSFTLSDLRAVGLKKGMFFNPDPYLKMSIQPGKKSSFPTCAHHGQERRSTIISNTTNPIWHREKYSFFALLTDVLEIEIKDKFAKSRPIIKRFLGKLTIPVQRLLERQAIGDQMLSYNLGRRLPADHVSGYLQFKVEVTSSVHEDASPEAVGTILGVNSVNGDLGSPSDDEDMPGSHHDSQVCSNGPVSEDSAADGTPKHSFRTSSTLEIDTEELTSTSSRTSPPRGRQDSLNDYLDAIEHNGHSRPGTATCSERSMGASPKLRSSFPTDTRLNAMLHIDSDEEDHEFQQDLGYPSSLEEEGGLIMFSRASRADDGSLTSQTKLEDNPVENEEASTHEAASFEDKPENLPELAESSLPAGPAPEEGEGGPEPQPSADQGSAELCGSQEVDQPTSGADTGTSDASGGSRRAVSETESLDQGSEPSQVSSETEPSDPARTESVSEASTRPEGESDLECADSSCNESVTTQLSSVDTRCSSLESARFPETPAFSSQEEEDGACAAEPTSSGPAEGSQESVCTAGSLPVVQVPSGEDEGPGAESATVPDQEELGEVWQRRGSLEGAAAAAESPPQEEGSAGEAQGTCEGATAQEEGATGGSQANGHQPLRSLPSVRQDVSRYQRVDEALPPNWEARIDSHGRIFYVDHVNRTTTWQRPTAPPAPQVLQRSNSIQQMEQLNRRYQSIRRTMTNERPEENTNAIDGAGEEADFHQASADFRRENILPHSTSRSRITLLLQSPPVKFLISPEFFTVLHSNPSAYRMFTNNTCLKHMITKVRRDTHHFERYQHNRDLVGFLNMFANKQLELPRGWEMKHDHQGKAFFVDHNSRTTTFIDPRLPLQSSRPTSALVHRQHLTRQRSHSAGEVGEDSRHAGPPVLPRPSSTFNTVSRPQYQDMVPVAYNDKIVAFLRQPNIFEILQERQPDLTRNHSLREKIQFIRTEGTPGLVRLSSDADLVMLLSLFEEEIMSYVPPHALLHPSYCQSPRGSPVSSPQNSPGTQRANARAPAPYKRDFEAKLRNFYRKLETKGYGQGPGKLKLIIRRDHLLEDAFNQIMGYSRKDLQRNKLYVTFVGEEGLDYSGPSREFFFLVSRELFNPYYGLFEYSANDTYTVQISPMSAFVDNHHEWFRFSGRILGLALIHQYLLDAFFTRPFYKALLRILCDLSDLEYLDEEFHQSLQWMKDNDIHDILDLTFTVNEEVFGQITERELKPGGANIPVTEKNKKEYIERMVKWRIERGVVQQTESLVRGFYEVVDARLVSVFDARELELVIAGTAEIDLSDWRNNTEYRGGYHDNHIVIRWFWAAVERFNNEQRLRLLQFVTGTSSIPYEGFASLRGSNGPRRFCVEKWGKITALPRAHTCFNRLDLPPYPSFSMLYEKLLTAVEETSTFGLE
# UniProt P46934: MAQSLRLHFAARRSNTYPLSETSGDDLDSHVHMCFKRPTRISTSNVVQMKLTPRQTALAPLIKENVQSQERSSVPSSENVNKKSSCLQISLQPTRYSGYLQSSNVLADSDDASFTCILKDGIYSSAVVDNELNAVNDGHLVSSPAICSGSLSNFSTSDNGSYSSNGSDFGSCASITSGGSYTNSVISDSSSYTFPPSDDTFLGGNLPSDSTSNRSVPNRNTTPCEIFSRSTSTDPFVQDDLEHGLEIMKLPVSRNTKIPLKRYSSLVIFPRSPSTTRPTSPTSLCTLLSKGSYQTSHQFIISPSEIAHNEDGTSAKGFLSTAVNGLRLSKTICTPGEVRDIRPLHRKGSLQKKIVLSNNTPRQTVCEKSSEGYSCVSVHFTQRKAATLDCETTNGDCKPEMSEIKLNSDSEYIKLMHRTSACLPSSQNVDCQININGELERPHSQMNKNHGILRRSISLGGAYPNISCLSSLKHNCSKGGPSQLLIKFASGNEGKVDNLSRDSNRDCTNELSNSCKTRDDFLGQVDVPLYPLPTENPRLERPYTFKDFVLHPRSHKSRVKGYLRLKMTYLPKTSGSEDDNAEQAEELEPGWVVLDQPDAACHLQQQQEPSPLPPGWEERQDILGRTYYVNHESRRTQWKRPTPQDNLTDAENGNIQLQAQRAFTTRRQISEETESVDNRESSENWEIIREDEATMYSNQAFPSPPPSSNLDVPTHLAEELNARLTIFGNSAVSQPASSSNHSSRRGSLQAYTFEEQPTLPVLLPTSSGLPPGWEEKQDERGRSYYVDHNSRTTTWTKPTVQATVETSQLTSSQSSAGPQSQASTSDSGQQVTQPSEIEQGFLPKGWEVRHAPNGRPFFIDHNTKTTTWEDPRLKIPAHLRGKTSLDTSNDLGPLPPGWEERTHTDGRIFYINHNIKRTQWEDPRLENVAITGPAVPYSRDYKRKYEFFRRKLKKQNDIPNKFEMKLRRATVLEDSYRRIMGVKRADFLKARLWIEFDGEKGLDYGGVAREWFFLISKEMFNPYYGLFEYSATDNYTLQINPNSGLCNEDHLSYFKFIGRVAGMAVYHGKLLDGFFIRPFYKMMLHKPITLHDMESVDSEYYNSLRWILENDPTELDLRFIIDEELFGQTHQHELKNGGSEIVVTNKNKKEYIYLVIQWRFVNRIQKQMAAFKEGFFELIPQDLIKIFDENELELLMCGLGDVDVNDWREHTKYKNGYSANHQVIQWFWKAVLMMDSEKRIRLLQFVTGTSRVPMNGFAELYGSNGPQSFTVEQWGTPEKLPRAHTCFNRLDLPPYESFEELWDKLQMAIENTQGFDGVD
# These are yes or no findings as the source states them, for the method shown. In cells and extracts the contact can be indirect. These calls come from enrichment with a bait or labelling near it, and not all partners need be listed.
# Biological target: ALFA-tagged TXNIP (thioredoxin interacting protein), expressed in HEK293T (human) (UniProt Q9H3M7)
# Experiment: affinity purification with mass spectrometry; label-free interactome: ALFA-TXNIP or its PPxY mutants precipitated from transfected HEK293T lysate on ALFA Selector ST magnetic beads, 3 h at 4 °C; 30 mM Tris pH 7.5, 150 mM NaCl, 0.5% octyl-glucopyranoside; abundances normalised to empty beads; n = 3
row,binding,Substance
1,binds,"HECW1, endogenous in HEK293T (from UniProt Q76N89 1-1606) (enzyme)"
2,binds,"HECW2, endogenous in HEK293T (from UniProt Q9P2P5 1-1572) (enzyme)"
3,binds,"NEDD4, endogenous in HEK293T (from UniProt P46934 1-1319) (enzyme)"
